Assay results as given in publication PMC6297349, “The ASCIZ-DYNLL1 axis promotes 53BP1-dependent non-homologous end joining and PARP inhibitor sensitivity” (Nature Communications, 2018).
These are yes or no findings as the source states them, for the method shown. In cells and extracts the contact can be indirect.

Protein sequences, listed by entry. Tags and fused reporters are not part of them. Lines headed by an entry give the natural chain unless they say otherwise; changes in a name come on top.
UniProt Q12888: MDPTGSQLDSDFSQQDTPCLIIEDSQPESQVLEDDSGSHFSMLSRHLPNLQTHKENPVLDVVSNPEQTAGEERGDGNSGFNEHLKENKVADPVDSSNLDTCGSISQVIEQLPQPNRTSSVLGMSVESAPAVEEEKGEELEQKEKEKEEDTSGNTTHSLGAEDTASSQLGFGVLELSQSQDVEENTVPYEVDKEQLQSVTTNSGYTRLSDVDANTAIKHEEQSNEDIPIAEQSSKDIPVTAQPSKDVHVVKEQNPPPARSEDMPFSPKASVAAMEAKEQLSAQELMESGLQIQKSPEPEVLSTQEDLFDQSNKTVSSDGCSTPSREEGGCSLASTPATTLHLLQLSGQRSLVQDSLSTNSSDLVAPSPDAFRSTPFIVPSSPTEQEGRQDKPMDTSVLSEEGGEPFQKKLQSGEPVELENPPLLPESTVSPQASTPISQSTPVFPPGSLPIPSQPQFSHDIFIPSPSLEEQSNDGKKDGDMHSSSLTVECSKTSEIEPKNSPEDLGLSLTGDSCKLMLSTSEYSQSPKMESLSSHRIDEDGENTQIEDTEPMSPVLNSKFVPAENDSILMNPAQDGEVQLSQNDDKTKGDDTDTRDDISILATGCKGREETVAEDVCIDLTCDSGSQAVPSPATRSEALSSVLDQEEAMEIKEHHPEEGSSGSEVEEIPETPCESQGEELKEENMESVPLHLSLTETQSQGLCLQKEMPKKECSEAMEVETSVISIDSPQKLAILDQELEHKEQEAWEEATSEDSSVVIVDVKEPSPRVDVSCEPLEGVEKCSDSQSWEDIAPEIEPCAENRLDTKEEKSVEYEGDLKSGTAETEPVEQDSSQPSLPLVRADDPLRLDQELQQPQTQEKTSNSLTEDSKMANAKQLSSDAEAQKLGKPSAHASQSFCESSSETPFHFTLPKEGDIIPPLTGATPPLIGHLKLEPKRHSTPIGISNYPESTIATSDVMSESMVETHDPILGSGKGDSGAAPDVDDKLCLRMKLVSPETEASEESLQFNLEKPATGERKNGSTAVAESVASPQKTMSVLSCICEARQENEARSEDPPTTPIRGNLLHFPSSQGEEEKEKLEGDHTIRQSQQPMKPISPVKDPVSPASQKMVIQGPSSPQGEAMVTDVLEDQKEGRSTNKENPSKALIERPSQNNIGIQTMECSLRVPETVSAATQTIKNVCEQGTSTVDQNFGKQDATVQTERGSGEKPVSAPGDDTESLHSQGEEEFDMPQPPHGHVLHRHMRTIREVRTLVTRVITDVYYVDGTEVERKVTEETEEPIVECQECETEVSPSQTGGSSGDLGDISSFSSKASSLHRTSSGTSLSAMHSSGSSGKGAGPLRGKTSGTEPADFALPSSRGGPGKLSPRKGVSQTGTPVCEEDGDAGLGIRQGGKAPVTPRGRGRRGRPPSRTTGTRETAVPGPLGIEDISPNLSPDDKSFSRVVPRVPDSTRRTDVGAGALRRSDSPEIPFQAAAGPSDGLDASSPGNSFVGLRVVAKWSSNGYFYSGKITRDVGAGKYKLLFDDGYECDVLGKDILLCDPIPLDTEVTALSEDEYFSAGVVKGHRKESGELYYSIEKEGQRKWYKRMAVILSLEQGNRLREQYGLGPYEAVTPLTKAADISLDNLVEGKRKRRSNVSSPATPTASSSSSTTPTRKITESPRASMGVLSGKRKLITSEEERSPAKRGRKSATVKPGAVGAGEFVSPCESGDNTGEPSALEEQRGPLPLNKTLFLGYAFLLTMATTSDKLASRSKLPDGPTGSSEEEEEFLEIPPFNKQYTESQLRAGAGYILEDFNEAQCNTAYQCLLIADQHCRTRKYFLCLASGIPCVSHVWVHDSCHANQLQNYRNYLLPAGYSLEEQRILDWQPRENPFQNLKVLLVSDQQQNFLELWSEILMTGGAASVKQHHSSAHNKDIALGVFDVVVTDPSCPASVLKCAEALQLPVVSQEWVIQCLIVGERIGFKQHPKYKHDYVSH
UniProt P63167: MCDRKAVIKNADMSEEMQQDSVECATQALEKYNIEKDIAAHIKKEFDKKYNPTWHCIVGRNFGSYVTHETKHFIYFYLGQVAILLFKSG

Target: FLAG-HA-tagged 53BP1^LC8m (LC8-motif mutant 53BP1) (UniProt Q12888)
Experiment: co-IP; FLAG-HA-53BP1 immuno-complexes on anti-FLAG M2 magnetic beads from HEK 293T whole cell extracts 48 h after transfection, untreated or irradiated (10 Gy, 1 h); bound at 150 mM KCl, washed at 100 mM KCl, eluted with 3x FLAG peptide; blotted for DYNLL1

Substance: dynein light chain 1 (DYNLL1), endogenous (from UniProt P63167 1-89)
- binding: no binding
